The other results are listed elsewhere or left out.
compound: CNC(=O)c1ccc(Nc2ncc(C(F)(F)F)c(NCc3nccnc3N(C)S(C)(=O)=O)n2)cc1 [defactinib]; assay: log2 fold change, soluble protein after heating vs DMSO (PISA); higher = thermal stabilisation; K562 cells, 10 uM, 30 min; active = over 0.2 and 3.5 SD of the protein, either way, in both replicates (recomputed)
In short: (§1)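 For each measurement, 10 μM compound was applied for 30 min to K562 cells at 2×10^6 cells/mL. Aliquots were heated for 3 min across 48°C-58°C, pooled, and extracted in PBS with 0.5% NP-40 at 4°C; the supernatant after 21,000xg for 90 min was soluble protein. This was quantified by TMTpro 16plex LC-MS/MS with channel sums equalised, and thermal stability was reported relative to control samples from duplicates, on a log2 fold-change scale.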

Chains of the proteins cited; added tags and fusions are not shown. Lines headed by an entry give the natural chain unless they say otherwise; changes in a name come on top.
UniProt Q6P3S6: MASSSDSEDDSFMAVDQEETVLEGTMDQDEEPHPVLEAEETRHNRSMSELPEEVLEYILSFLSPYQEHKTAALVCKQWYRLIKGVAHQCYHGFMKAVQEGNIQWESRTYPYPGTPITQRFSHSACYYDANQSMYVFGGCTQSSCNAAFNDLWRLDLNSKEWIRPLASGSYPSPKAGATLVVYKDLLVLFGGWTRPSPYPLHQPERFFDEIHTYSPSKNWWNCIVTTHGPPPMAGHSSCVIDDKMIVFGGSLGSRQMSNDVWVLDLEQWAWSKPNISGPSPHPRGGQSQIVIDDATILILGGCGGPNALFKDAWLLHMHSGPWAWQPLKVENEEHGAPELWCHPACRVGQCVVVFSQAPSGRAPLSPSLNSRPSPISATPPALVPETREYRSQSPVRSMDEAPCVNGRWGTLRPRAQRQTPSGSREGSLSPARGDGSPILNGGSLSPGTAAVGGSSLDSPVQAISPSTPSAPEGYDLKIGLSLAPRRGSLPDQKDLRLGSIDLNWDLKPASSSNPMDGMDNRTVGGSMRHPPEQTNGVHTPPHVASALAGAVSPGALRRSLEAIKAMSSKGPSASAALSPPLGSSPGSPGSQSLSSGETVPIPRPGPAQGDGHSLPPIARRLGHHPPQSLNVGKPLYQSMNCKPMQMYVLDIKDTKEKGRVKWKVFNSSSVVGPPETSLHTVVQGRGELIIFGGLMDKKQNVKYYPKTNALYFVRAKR
UniProt Q53R41: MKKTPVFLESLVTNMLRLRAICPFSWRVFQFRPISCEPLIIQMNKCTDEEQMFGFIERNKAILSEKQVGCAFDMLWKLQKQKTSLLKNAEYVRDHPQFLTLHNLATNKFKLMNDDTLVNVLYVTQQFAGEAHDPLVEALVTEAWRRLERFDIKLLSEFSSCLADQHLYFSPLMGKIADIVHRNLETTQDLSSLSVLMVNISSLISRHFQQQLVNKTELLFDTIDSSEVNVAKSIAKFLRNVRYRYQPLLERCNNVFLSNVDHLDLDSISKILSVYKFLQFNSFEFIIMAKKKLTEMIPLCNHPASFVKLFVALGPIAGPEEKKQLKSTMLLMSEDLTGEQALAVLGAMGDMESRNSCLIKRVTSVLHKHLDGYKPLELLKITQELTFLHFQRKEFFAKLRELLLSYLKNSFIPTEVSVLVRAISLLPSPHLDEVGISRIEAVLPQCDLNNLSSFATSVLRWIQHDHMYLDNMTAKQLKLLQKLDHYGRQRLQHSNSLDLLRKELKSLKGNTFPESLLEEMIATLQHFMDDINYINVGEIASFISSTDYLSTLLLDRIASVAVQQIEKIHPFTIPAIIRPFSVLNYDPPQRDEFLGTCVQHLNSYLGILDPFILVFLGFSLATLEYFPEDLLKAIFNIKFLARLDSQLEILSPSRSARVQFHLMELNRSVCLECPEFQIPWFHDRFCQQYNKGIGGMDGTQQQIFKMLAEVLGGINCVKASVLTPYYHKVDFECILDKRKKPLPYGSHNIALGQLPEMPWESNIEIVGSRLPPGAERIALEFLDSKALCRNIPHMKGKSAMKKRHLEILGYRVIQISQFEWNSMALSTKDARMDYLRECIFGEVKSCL
UniProt P17948, whole entry, looked up: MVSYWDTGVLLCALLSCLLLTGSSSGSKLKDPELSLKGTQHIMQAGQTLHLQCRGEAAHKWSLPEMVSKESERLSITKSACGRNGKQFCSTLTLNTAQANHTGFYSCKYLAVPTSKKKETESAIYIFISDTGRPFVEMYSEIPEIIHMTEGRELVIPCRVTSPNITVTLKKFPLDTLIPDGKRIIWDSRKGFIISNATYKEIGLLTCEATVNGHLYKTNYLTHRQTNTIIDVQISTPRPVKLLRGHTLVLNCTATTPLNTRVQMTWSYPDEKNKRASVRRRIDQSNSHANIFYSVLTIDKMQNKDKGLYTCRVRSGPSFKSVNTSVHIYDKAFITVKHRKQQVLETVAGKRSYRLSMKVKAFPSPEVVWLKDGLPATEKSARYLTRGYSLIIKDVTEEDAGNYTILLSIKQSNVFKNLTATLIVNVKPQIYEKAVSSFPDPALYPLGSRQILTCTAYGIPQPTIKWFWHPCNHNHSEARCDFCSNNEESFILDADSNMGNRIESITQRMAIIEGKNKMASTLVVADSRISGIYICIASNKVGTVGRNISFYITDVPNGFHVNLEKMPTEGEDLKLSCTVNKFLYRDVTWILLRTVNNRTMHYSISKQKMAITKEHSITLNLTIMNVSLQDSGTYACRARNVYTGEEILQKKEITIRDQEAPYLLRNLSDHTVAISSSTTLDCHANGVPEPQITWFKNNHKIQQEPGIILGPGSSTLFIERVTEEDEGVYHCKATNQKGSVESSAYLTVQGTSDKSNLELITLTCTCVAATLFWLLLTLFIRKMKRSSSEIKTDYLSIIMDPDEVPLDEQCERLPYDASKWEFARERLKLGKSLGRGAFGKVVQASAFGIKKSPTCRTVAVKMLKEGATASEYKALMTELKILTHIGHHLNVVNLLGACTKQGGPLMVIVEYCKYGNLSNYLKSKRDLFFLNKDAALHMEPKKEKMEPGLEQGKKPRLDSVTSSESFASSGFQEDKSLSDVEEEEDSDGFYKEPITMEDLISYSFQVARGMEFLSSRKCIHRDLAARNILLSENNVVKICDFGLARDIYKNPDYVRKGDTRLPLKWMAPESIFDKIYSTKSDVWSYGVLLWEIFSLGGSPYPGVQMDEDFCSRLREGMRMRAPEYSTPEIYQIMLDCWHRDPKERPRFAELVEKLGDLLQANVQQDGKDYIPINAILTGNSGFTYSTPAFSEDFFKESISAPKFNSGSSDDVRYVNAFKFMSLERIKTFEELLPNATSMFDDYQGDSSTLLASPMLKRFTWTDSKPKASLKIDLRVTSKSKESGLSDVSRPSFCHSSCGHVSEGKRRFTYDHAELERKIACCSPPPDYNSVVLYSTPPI
UniProt Q9Y3D6: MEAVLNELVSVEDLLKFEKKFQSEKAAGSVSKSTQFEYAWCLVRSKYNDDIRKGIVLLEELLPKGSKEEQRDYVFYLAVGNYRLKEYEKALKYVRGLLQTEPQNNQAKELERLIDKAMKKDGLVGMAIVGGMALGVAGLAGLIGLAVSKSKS
UniProt P98173: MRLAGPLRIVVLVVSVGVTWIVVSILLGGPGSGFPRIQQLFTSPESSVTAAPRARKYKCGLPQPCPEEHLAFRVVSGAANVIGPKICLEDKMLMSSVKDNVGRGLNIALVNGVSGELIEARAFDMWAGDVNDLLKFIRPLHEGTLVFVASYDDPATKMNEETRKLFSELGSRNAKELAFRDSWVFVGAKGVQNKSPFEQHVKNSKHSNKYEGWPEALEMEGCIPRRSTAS
UniProt O43427: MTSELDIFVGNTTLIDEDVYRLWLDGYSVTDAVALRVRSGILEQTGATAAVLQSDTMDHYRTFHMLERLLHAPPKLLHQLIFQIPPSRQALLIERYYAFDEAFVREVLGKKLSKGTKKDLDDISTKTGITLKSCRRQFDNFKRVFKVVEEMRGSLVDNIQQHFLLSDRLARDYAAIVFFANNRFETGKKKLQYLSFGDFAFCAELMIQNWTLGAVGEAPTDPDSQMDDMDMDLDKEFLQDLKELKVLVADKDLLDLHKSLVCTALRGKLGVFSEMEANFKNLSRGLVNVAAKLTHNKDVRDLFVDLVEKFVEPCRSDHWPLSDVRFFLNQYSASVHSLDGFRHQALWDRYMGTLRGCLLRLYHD
UniProt Q9Y324: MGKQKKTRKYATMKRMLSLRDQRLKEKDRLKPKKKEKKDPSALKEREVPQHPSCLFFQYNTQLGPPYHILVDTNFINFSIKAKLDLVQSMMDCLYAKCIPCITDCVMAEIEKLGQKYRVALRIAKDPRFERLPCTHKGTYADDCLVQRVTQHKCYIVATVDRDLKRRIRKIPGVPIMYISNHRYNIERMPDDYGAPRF
UniProt Q96HJ9: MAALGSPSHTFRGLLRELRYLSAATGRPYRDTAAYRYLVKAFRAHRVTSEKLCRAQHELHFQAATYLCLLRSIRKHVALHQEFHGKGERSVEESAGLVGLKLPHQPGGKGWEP
UniProt Q8N8J7: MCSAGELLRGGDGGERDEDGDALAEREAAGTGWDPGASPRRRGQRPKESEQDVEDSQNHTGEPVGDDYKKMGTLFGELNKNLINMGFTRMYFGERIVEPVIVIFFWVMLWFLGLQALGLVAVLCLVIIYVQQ
UniProt Q9Y613: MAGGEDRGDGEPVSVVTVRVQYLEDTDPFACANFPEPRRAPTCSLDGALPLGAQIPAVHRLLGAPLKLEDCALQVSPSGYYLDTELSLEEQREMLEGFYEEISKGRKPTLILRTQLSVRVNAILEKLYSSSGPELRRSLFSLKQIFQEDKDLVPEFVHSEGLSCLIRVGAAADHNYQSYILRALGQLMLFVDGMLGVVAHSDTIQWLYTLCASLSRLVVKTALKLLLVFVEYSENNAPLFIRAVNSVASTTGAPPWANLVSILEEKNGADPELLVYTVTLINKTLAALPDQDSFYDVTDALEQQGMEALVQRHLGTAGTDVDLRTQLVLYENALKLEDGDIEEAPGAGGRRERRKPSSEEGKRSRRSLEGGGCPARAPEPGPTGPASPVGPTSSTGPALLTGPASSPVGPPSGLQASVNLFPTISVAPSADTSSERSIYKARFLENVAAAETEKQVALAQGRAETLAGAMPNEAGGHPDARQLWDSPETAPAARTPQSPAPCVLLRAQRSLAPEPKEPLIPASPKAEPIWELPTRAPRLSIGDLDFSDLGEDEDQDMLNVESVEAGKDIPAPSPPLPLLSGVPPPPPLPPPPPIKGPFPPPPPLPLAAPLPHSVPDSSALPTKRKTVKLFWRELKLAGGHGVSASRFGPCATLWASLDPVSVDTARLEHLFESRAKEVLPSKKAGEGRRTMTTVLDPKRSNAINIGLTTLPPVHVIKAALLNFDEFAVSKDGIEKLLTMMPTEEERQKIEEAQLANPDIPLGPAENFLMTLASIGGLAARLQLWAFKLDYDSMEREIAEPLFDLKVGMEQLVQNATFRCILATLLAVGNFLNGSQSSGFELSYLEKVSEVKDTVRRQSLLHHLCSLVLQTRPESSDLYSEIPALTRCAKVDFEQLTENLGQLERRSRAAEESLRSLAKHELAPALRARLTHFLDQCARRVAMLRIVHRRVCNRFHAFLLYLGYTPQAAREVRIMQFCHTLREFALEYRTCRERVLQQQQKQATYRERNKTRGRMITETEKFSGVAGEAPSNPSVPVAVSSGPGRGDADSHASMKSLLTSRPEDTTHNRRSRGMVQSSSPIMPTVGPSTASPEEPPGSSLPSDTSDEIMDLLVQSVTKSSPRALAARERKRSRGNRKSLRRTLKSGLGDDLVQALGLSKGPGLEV
UniProt P14324: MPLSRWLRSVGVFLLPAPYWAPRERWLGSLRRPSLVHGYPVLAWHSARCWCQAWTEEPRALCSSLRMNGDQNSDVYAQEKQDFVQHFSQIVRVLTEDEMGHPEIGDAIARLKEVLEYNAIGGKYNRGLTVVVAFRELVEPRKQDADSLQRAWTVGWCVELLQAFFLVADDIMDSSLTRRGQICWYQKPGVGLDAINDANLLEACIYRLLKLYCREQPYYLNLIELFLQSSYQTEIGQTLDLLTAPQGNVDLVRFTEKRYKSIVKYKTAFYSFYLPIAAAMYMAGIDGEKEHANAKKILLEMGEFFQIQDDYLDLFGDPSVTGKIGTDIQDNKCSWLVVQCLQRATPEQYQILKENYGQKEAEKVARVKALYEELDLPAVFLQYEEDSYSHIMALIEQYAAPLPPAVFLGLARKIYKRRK
UniProt Q9NRD1: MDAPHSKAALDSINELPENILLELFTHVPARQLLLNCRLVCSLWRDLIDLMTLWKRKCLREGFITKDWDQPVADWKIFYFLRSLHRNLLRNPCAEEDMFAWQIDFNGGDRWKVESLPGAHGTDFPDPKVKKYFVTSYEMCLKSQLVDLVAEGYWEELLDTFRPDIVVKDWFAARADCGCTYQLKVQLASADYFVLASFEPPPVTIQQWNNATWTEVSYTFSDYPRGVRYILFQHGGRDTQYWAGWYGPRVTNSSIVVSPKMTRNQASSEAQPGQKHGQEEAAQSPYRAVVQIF
UniProt P39748, whole entry, looked up: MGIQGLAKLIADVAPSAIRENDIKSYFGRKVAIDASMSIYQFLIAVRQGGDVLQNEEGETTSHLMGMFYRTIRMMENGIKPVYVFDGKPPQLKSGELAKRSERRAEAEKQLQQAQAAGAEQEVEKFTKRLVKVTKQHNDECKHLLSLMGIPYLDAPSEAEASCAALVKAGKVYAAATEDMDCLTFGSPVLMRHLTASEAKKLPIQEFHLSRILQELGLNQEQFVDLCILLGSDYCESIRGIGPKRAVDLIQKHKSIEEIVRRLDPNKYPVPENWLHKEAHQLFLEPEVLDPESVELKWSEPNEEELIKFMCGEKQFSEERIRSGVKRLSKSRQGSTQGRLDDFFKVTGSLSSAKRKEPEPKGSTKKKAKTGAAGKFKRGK
UniProt Q96KR6: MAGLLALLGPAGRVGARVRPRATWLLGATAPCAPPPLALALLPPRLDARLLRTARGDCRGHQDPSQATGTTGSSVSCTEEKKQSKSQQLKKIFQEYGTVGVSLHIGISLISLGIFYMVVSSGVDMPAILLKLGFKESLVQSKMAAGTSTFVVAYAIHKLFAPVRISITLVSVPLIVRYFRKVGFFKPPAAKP

| Target | log2 fold change |
| --- | --- |
| FGB (UniProt P02675) | inactive: 0.023 |
| FKBP4 (UniProt Q02790) | inactive: -0.055 |
| FBXO42 (UniProt Q6P3S6) | inactive: -0.165 |
| FASTKD1 (UniProt Q53R41) | inactive: -0.22 |
| FLT1 (UniProt P17948) | inactive: 0.033 |
| FCHO1 (UniProt O14526) | inactive: -0.042 |
| FIS1 (UniProt Q9Y3D6) | inactive: -0.063 |
| FDFT1 (UniProt P37268) | inactive: -0.02 |
| FBXO38 (UniProt Q6PIJ6) | inactive: -0.028 |
| FECH isoform 2 (UniProt P22830) | inactive: 0.102 |
| FAM53B (UniProt Q14153) | inactive: -0.087 |
| FANCD2 isoform 1 (UniProt Q9BXW9) | inactive: -0.145 |
| FAM3A (UniProt P98173) | inactive: -0.035 |
| FER (UniProt P16591) | inactive: -0.061 |
| FIZ1 (UniProt Q96SL8) | inactive: 0.06 |
| FIBP (UniProt O43427) | inactive: -0.046 |
| FCF1 (UniProt Q9Y324) | inactive: 0.26 |
| FBXO9 (UniProt Q9UK97) | inactive: 0.052 |
| FMC1 (UniProt Q96HJ9) | inactive: -0.056 |
| FAM241A (UniProt Q8N8J7) | inactive: 0.013 |
| FHOD1 (UniProt Q9Y613) | inactive: -0.042 |
| FNTA (UniProt P49354) | inactive: 0.019 |
| FAM76A isoform 3 (UniProt Q8TAV0) | inactive: -0.02 |
| FDPS (UniProt P14324) | inactive: -0.032 |
| FBXO6 (UniProt Q9NRD1) | inactive: -0.038 |
| FAT2 (UniProt Q9NYQ8) | inactive: 0.011 |
| FANCI (UniProt Q9NVI1) | inactive: -0.179 |
| FEN1 (UniProt P39748) | inactive: -0.139 |
| FAM210B (UniProt Q96KR6) | inactive: -0.067 |
| FAT4 (UniProt Q6V0I7) | inactive: 0.06 |

compound: CNCc1ccc(-c2[nH]c3cc(F)cc4c3c2CCNC4=O)cc1 [rucaparib]; assay: as above
In short: as §1

| Target | log2 fold change |
| --- | --- |
| FGB (UniProt P02675) | inactive: 0.019 |
| FNDC3A (UniProt Q9Y2H6) | inactive: 0.321 |
| FKBP4 (UniProt Q02790) | inactive: 0.016 |
| FBXO42 (UniProt Q6P3S6) | inactive: -0.073 |
| FASTKD1 (UniProt Q53R41) | inactive: -0.093 |
| FAM89A (UniProt Q96GI7) | inactive: -0.003 |
| FAM53C (UniProt Q9NYF3) | inactive: 0.008 |
| FLT1 (UniProt P17948) | inactive: -0.053 |
| FCHO1 (UniProt O14526) | inactive: 0.248 |
| FIS1 (UniProt Q9Y3D6) | inactive: 0.004 |
| FDFT1 (UniProt P37268) | inactive: 0.004 |
| FBXO38 (UniProt Q6PIJ6) | inactive: 0.021 |
| FECH isoform 2 (UniProt P22830) | inactive: 0.043 |
| FAM53B (UniProt Q14153) | inactive: -0.411 |
| FANCD2 isoform 1 (UniProt Q9BXW9) | inactive: 0.051 |
| FAM3A (UniProt P98173) | inactive: 0.017 |
| FER (UniProt P16591) | inactive: -0.182 |
| FBXL8 (UniProt Q96CD0) | inactive: -0.176 |
| FIZ1 (UniProt Q96SL8) | inactive: -0.012 |
| FIBP (UniProt O43427) | active: 0.395 |

| Target | log2 fold change |
| --- | --- |
| FCHSD1 (UniProt Q86WN1) | inactive: -0.322 |
| FANCA (UniProt O15360) | inactive: 0.062 |
| FCF1 (UniProt Q9Y324) | inactive: 0.187 |
| FBXO9 (UniProt Q9UK97) | inactive: 0.055 |
| FMC1 (UniProt Q96HJ9) | inactive: -0.023 |
| FAM241A (UniProt Q8N8J7) | inactive: 0.006 |
| FHOD1 (UniProt Q9Y613) | inactive: 0.442 |
| FMR1 (UniProt Q06787) | inactive: 0.19 |
| FNTA (UniProt P49354) | inactive: -0.243 |
| FAM76A isoform 3 (UniProt Q8TAV0) | inactive: -0.021 |
| FAM222B (UniProt Q8WU58) | inactive: -0.017 |
| FDPS (UniProt P14324) | inactive: -0.112 |
| FBXO6 (UniProt Q9NRD1) | inactive: -0.064 |
| FAT2 (UniProt Q9NYQ8) | inactive: -0.007 |
| FANCI (UniProt Q9NVI1) | inactive: 0.041 |
| FEN1 (UniProt P39748) | inactive: -0.128 |
| FAM210B (UniProt Q96KR6) | inactive: -0.004 |
| FITM2 (UniProt Q8N6M3) | inactive: 0.029 |
| FAT4 (UniProt Q6V0I7) | inactive: -0.154 |

compound: CNc1nc(-c2ccc3c(N)n[nH]c3c2)cc(N2C[C@@H](C(=O)NC3CCCCC3)CC[C@H]2C)n1; assay: as above
In short: as §1

| Target | log2 fold change |
| --- | --- |
| FKBP4 (UniProt Q02790) | inactive: 0.05 |
| FBXO42 (UniProt Q6P3S6) | inactive: 0.139 |
| FASTKD1 (UniProt Q53R41) | inactive: 0.112 |
| FLT1 (UniProt P17948) | inactive: -0.127 |
| FCHO1 (UniProt O14526) | inactive: 0.054 |
| FIS1 (UniProt Q9Y3D6) | inactive: 0.182 |
| FDFT1 (UniProt P37268) | inactive: -0.072 |
| FBXO38 (UniProt Q6PIJ6) | inactive: 0.156 |
| FECH isoform 2 (UniProt P22830) | inactive: 0.538 |
| FAM53B (UniProt Q14153) | inactive: -0.024 |
| FANCD2 isoform 1 (UniProt Q9BXW9) | inactive: 0.028 |
| FAM3A (UniProt P98173) | inactive: 0.075 |
| FIZ1 (UniProt Q96SL8) | inactive: -0.095 |
| FIBP (UniProt O43427) | inactive: -0.085 |
| FCHSD1 (UniProt Q86WN1) | inactive: 0.03 |
| FCF1 (UniProt Q9Y324) | inactive: 0.2 |
| FBXO9 (UniProt Q9UK97) | inactive: -0.014 |
| FMC1 (UniProt Q96HJ9) | inactive: -0.071 |
| FAM241A (UniProt Q8N8J7) | inactive: -0.003 |
| FHOD1 (UniProt Q9Y613) | inactive: 0.101 |
| FNTA (UniProt P49354) | inactive: -0.016 |
| FAM222B (UniProt Q8WU58) | inactive: 0.031 |
| FDPS (UniProt P14324) | inactive: 0.237 |
| FBXO6 (UniProt Q9NRD1) | inactive: 0.011 |
| FAT2 (UniProt Q9NYQ8) | inactive: 0.021 |
| FANCI (UniProt Q9NVI1) | inactive: -0.002 |
| FEN1 (UniProt P39748) | inactive: 0.183 |
| FAM210B (UniProt Q96KR6) | inactive: -0.018 |
